Source: paper PMC8456781, “Myosin-X and talin modulate integrin activity at filopodia tips” (Cell Reports, 2021)
These are yes or no findings as the source states them, for the method shown. In cells and extracts the contact can be indirect. Some binding calls cover weakened binding; strength is not graded here.

Chains of the proteins cited; added tags and fusions are not shown. Lines headed by an entry give the natural chain unless they say otherwise; changes in a name come on top. A line that says so, or that is headed by a name, gives the form on record, which may keep a tag or linker.
UniProt Q9HD67: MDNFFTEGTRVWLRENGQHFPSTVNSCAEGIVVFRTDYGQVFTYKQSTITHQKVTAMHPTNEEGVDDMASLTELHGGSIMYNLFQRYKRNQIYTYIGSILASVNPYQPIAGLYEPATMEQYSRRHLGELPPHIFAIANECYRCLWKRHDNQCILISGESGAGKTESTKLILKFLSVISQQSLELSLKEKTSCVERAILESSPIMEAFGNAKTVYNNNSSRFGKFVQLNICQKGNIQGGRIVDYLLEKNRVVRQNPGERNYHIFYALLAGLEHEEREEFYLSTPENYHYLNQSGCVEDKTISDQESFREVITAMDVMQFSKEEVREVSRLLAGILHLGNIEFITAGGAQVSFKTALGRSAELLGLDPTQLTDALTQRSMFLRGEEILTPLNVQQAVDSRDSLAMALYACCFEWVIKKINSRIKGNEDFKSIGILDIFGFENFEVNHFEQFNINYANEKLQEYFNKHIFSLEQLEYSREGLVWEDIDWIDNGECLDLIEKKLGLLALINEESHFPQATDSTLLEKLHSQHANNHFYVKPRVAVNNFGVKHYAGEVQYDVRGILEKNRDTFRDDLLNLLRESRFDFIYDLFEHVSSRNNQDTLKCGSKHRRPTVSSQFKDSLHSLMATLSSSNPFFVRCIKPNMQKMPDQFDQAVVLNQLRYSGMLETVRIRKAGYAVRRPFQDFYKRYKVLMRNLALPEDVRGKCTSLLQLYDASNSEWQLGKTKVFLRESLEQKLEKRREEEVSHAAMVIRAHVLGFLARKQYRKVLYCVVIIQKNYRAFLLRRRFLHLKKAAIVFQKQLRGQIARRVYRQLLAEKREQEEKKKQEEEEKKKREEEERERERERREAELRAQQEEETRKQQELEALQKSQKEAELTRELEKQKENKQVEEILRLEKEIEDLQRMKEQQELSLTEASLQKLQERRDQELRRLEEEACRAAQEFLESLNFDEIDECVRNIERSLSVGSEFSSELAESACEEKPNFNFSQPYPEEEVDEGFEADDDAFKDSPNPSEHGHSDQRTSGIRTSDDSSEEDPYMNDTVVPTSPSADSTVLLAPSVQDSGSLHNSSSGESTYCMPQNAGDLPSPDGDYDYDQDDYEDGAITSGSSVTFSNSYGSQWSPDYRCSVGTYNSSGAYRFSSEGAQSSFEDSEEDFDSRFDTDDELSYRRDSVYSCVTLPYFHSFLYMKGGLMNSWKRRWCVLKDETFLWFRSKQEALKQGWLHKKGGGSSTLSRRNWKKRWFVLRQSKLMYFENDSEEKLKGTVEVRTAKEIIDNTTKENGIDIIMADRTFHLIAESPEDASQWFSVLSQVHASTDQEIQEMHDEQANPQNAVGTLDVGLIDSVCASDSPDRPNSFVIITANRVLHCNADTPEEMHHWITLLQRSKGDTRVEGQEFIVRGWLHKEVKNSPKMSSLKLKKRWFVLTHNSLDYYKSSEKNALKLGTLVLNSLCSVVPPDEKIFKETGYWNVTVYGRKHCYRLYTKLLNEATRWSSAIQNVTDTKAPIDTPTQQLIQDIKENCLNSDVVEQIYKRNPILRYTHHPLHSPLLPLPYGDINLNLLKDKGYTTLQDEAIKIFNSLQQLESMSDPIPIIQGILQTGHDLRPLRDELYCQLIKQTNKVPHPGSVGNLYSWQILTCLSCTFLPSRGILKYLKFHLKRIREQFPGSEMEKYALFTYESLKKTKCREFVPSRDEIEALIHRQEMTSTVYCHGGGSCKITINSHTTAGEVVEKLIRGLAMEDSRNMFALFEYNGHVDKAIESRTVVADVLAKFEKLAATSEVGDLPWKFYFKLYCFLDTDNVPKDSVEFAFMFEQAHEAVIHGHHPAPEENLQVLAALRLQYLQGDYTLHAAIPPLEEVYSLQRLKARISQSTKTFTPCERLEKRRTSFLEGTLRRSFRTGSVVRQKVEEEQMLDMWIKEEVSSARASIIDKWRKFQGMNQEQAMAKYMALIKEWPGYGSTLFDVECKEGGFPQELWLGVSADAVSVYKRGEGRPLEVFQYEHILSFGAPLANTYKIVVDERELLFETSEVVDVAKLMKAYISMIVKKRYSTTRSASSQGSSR
EGFP-MYO10-FERM^ITGBD (MYO10-FERM mutated on the predicted integrin binding site) (Q9HD67, form named): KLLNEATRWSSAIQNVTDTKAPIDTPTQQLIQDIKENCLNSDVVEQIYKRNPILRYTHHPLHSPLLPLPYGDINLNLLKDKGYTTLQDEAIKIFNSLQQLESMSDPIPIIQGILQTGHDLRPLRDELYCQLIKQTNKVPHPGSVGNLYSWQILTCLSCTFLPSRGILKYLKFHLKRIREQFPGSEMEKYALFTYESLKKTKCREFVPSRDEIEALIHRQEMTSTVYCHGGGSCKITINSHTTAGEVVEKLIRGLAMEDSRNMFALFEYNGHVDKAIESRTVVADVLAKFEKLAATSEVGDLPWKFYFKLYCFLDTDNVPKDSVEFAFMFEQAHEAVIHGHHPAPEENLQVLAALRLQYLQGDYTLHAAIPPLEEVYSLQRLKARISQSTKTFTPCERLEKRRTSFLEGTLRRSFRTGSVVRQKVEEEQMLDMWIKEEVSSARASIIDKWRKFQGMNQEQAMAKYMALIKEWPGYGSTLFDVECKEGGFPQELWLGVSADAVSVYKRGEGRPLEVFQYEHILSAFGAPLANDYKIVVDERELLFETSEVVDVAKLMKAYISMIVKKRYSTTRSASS
UniProt Q96CW1: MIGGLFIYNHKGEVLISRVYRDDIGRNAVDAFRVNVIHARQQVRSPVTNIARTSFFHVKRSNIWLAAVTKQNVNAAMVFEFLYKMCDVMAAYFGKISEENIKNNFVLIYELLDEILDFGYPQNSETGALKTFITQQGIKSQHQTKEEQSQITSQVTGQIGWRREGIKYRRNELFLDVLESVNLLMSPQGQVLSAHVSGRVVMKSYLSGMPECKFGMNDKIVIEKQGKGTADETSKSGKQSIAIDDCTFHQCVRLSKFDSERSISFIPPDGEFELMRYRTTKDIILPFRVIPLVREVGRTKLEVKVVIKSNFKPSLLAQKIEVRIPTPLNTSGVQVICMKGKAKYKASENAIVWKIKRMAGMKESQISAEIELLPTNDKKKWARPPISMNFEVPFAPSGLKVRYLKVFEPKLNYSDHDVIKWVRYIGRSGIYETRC

How the values were obtained:
[1] = molecular target: T1, conserved region of the α2-integrin tail, peptide; assay: pull-down; biotinylated integrin tail peptides on streptavidin Dynabeads, U2-OS cell lysate (40 mM HEPES, 75 mM NaCl, 2 mM EDTA, 1% NP-40), 2 h at 4°C, western blot; only the target purified
T1 sequence (peptide, biotin (biotinylated for the pull-downs; position not stated)): WKLGFFKRKYEKM

[2] = molecular target: wild-type β1-integrin tail peptide; assay: as above

Row | Substance | binding [1] | binding [2]
1 | EGFP-MYO10-FERM^ITGBD (MYO10-FERM mutated on the predicted integrin binding site) (from UniProt Q9HD67 1480-2053) (domain or fragment) | binds | –
2 | EGFP-tagged MYO10-FERM domain wild-type (EGFP-MYO10^FERM) (from UniProt Q9HD67 1480-2053) (domain or fragment) | binds | –
3 | clathrin adaptor AP2μ (from UniProt Q96CW1 1-435) | binds | no binding
4 | myosin-X (MYO10), endogenous full-length (from UniProt Q9HD67 1-2058) | binds | –
